Results deposited as PubChem BioAssay AID1224828 (NIAID, 2016).
This is one part, drawn at random, of about 17,000 deposited reagents. 762 of all reagents (4.5%) were called active. 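Active calls include both raised and lowered p65 entry, mostly lowered; wells with fewer than 50 cells lack a z-score.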 Raw values vary from plate to plate and are shown uncorrected. Reagents against one gene are numbered here. Reagent sequences are not shown.

- Assay: 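Knock-downs that increase or decrease LPS-induced p65 nuclear translocation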 (primary screen)
- Cells: mouse RAW264.7 G9 macrophage reporter cells (GFP-p65, Tnf promoter-mCherry)
- Reagent: siRNA pool against mouse genes, 100 nM
- Time to read-out: 2 days siRNA transfection, then 40 min LPS before fixation
- Treatment: LPS (Salmonella minnesota R595) at 10 ng/ml
- Measured: 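Imaged p65 nuclear translocation ratio, normalised to the plate median, converted to robust z-scores and averaged across two replicates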
- Reading the numbers: p65 translocation robust z-score: higher = more nuclear NF-kappaB p65 after LPS than the plate median; nuclear/cytoplasmic p65 ratio: higher = more nuclear NF-kappaB p65
- Call rule: 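Active if robust z is above 3.3 (negative regulators) or below -1.56, the Tlr4 control median (positive regulators); activity score 50 or more; control wells not called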
- Meaning of the calls: active = hit (p65 shift raised or lowered); inactive = no clear change

Gene	pool no.	p65 translocation robust z-score	nuclear/cytoplasmic p65 ratio, rep 1	nuclear/cytoplasmic p65 ratio, rep 2	low cell count flag	Call
Dhx9 (GeneID 13211)	1	2.83	1.86	1.71	enough cells to score	inactive
Hapln4 (GeneID 330790)	1	0.68	1.8	1.59	enough cells to score	inactive
Zfp414 (GeneID 328801)	1	0.42	1.56	1.53	enough cells to score	inactive
Pola2 (GeneID 18969)	1	-0.02	1.4	1.2	enough cells to score	inactive
Sergef (GeneID 27414)	1	0.42	1.37	1.55	enough cells to score	inactive
Arhgef37 (GeneID 328967)	1	1.28	1.45	1.71	enough cells to score	inactive
Klhl6 (GeneID 239743)	1		1.33	1.46	fewer than 50 cells per well; well left out of scoring	inactive
Tmem45a (GeneID 56277)	1	-0.49	1.51	1.57	enough cells to score	inactive
Ckap2l (GeneID 70466)	1		1.24	0.861	fewer than 50 cells per well; well left out of scoring	inactive
D2hgdh (GeneID 98314)	1	0.51	1.66	1.79	enough cells to score	inactive
Ndrg4 (GeneID 234593)	1	-1.07	1.18	1.21	enough cells to score	inactive
Hepacam2 (GeneID 101202)	1	-0.24	1.59	1.62	enough cells to score	inactive
Lrrc14 (GeneID 223664)	1	1.49	1.81	1.45	enough cells to score	inactive
Or9m1b (GeneID 258643)	1	-0.16	1.68	1.51	enough cells to score	inactive
2210409E12Rik (GeneID 72381)	1	0.26	1.39	1.4	enough cells to score	inactive
Ryk (GeneID 20187)	1	-0.73	1.95	1.28	enough cells to score	inactive
Ppm1l (GeneID 242083)	1	-2.19	1.2	1.12	enough cells to score	active
Zfpm2 (GeneID 22762)	1	0.56	1.62	1.55	enough cells to score	inactive
Mtbp (GeneID 105837)	1	0.18	1.46	1.37	enough cells to score	inactive
A030005L19Rik (GeneID 77922)	1	-1.28	1.18	1.38	enough cells to score	inactive
Col10a1 (GeneID 12813)	1	0.53	1.56	1.44	enough cells to score	inactive
Gtf3c4 (GeneID 269252)	1	1.27	1.59	1.55	enough cells to score	inactive
Tbck (GeneID 271981)	1	0.6	1.51	1.61	enough cells to score	inactive
Tbck (GeneID 271981)	2	1.56	1.62	1.58	enough cells to score	inactive
Ywhaz (GeneID 22631)	1	-0.39	1.46	1.44	enough cells to score	inactive
Acot7 (GeneID 70025)	1	-0.04	1.62	1.6	enough cells to score	inactive
Prss43 (GeneID 272643)	1	1.77	1.59	1.3	enough cells to score	inactive
Zfp646 (GeneID 233905)	1	-1.22	1.21	1.42	enough cells to score	inactive
Fam120c (GeneID 207375)	1	0.83	1.61	1.29	enough cells to score	inactive
Pdcl3 (GeneID 68833)	1	-2.13	1.08	1.06	enough cells to score	active
Rab37 (GeneID 58222)	1	-0.58	1.3	1.16	enough cells to score	inactive
Trmt61a (GeneID 328162)	1	-0.97	1.36	1.34	enough cells to score	inactive
Tctn3 (GeneID 67590)	1		1.5	1.78	fewer than 50 cells per well; well left out of scoring	inactive
Tmem239 (GeneID 66766)	1	0.76	1.49	1.54	enough cells to score	inactive
Lyn (GeneID 17096)	1	-1.11	2	1.24	enough cells to score	inactive
Stat4 (GeneID 20849)	1		1.48	1.31	fewer than 50 cells per well; well left out of scoring	inactive
Or4p18 (GeneID 258919)	1	-2.13	1.34	1.26	enough cells to score	active
Sgcz (GeneID 244431)	1		1.28	1.07	fewer than 50 cells per well; well left out of scoring	inactive
Ssmem1 (GeneID 75647)	1		1.71	1.94	fewer than 50 cells per well; well left out of scoring	inactive
Tmod2 (GeneID 50876)	1	-0.36	1.31	1.16	enough cells to score	inactive
Fer (GeneID 14158)	1	0.43	1.69	1.49	enough cells to score	inactive
Lrrc8d (GeneID 231549)	1		1.59	1.51	fewer than 50 cells per well; well left out of scoring	inactive
Cd14 (GeneID 12475)	1	-1.21	1.27	1.25	enough cells to score	inactive
Zfp523 (GeneID 224656)	1	0.26	1.58	1.51	enough cells to score	inactive
Rpl23 (GeneID 65019)	1	0.28	1.45	1.26	enough cells to score	inactive
Epb41l3 (GeneID 13823)	1	-0.39	1.58	1.37	enough cells to score	inactive
Pycr3 (GeneID 66194)	1	0.23	1.56	1.38	enough cells to score	inactive
Osgin2 (GeneID 209212)	1	-0.73	1.44	1.76	enough cells to score	inactive

Records above whose target name begins with O or o (3):
Gene	pool no.	p65 translocation robust z-score	nuclear/cytoplasmic p65 ratio, rep 1	nuclear/cytoplasmic p65 ratio, rep 2	low cell count flag	Call
Or9m1b (GeneID 258643)	1	-0.16	1.68	1.51	enough cells to score	inactive
Or4p18 (GeneID 258919)	1	-2.13	1.34	1.26	enough cells to score	active
Osgin2 (GeneID 209212)	1	-0.73	1.44	1.76	enough cells to score	inactive

Additional entries:
Gene	pool no.	p65 translocation robust z-score	nuclear/cytoplasmic p65 ratio, rep 1	nuclear/cytoplasmic p65 ratio, rep 2	low cell count flag	Call
Rmnd5b (GeneID 66089)	1	-0.99	1.31	1.4	enough cells to score	inactive
Foxa3 (GeneID 15377)	1	0.96	1.51	1.55	enough cells to score	inactive
Socs1 (GeneID 12703)	1	-0.46	1.58	1.35	enough cells to score	inactive
Ovch2 (GeneID 244199)	1		1.55	1.31	fewer than 50 cells per well; well left out of scoring	inactive
Accs (GeneID 329470)	1		1.44	1.79	fewer than 50 cells per well; well left out of scoring	inactive
Or4c110 (GeneID 258451)	1	-1.22	1.39	1.47	enough cells to score	inactive
Prap1 (GeneID 22264)	1		1.13	1.06	fewer than 50 cells per well; well left out of scoring	inactive
Dpt (GeneID 56429)	1		1.89	1.47	fewer than 50 cells per well; well left out of scoring	inactive
Cep57 (GeneID 74360)	1		1.16	1.45	fewer than 50 cells per well; well left out of scoring	inactive
Foxn3 (GeneID 71375)	1	0.11	1.69	1.58	enough cells to score	inactive
Or52z14 (GeneID 259080)	1	-0.14	1.45	1.25	enough cells to score	inactive
Mlxip (GeneID 208104)	1	-0.53	1.55	1.52	enough cells to score	inactive
Slc22a12 (GeneID 20521)	1	0.6	1.66	1.55	enough cells to score	inactive
Ctc1 (GeneID 68964)	1	-0.29	1.41	1.49	enough cells to score	inactive
Zfp593 (GeneID 68040)	1		1.15	1.4	fewer than 50 cells per well; well left out of scoring	inactive
Gsdmd (GeneID 69146)	1	-0.2	1.33	1.44	enough cells to score	inactive
Acsl3 (GeneID 74205)	1	-0.16	1.66	1.53	enough cells to score	inactive
Lysmd2 (GeneID 70082)	1	1.38	1.25	1.75	enough cells to score	inactive
Midn (GeneID 59090)	1	-0.4	1.65	1.49	enough cells to score	inactive
Smad7 (GeneID 17131)	1	1.92	1.94	1.66	enough cells to score	inactive
Crygf (GeneID 12969)	1	-0.96	1.42	1.63	enough cells to score	inactive
Eif4a1 (GeneID 13681)	1		1.63	1.4	fewer than 50 cells per well; well left out of scoring	inactive
Gmnn (GeneID 57441)	1	-0.61	1.32	1.33	enough cells to score	inactive
Sytl3 (GeneID 83672)	1		1.44	1.28	fewer than 50 cells per well; well left out of scoring	inactive
Nanos1 (GeneID 332397)	1	-0.76	1.67	1.08	enough cells to score	inactive
Dsg1c (GeneID 211924)	1	0.68	1.55	1.42	enough cells to score	inactive
Rangap1 (GeneID 19387)	1	-1.18	1.42	1.29	enough cells to score	inactive
